## Primary screen of a compound library

Source: ChEMBL document CHEMBL3988442, “University of Dundee, Small-Polar-MMV Screening Library” (2021).

Values are the deposited “Percent Effect”, in %.
How 0% and 100% were set is not recorded. Most values in the screen are low, and negative values occur.
Compounds were drawn at random from those tested, without regard to their results.
Two or more numbers in one place are separate tests of the same structure; such repeats can differ widely.

A: 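Assay of Toxoplasma gondii numbers, read through their beta-galactosidase reporter with a colour substrate. Compounds at 10 µM. The record gives no direction; the compounds picked for IC50 retests had high values, so higher reads as fewer parasites. Of about 67,000 compounds tested this way, about 260 (0.38%) reached 50% or more in at least one test.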
B: 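Whole-parasite assay of Trypanosoma brucei over 72 hours; the read-out is not stated. Concentration: 30 µM. Direction is inferred from retests: higher values go with stronger inhibition. Values scatter widely below zero; nearly all retest evidence comes from the higher of the two concentrations used. Size under these conditions: about 64,000 compounds, about 940 of them at 50% or above in at least one test.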
C: 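Cell assay of Leishmania donovani living inside macrophages; the read-out is not stated. Compounds at 30 µM. Higher reads as stronger inhibition (inferred: compounds with an IC50 in retests scored well above the rest). About 69,000 compounds were tested under these conditions; 1.5% (about 1,000) showed 50% or more at least once.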

O=C(NC1CCC(C(=O)N2CCSCC2)CC1)N1CCOCC1 (centres undefined) gave A: -4.915%; B: -14.11%; C: 11.96%. For N#Cc1ccnc(SCC2CN=C(N3CCOCC3)S2)c1 (centres undefined) the result was A: -7.081%; B: -1.105%; C: 19.44%. For CCn1cc(NC(=O)C2CCC(=O)N2Cc2ccco2)cn1 (centres undefined) the result was A: -0.9596%; B: -18.4%; C: 14.44%. CC(C)c1nc(C2CCCN(C(=O)c3ccc4nncn4c3)C2)no1 (centres undefined) gave A: 14.52%; C: -3.539%. For Cc1ncncc1C(=O)NCCN1CCC(C)CC1 the result was A: 19.65%; C: 57.89%. O=C(CN1CCCCC1)NCc1cccnc1-n1cnc2ccccc21 gave A: -16.12%; B: -24.04%; C: 8.503%. O=c1cc(Cn2ccnc2)nc2n1CCCN(Cc1cccs1)C2 gave A: -4.027%; B: -2.733%; C: -18.72%.

For Cc1ccnc(NCc2ccccc2N2CCOCC2)n1 the result was A: -3.965%; B: -5.164%; C: 21.33%. Cc1cc2occ(CC(=O)N3CCC(O)(CN(C)C)C3)c2cc1Cl (centres undefined) gave A: 15.73%; B: 99.94%; C: 50.58%. O=C(N[C@@H]1CN(Cc2ccc(F)c(F)c2)C[C@H]1O)c1cscn1 read A: 4.223%; B: -6.964%; C: 13.64% and 19.05%. For CCOCCNC(=O)c1cccc(Cn2nc(C)cc2C)c1 the result was A: -13.18%; B: -5.12%; C: 16.05%. CCc1nccn1C1CCCN(C(=O)Cc2n[nH]c3ccccc23)C1 (centres undefined) read A: -6.58%; B: 4.646%; C: 11.16%. For COc1cc(CN2CCCC23CCN(c2ccccn2)CC3)ccc1F the result was A: -11.65%; B: 19.45%; C: -40.33%. Cc1nn(CCc2nnc(NCC(C)C)s2)c(C)c1Br read A: 4.56%; B: -26.11%; C: 5.581%.

O=S(=O)(C1CC1)N1CCCn2nnc(Cn3cccc3)c2C1 gave A: -13.57%; B: -2.042%; C: 3.437%. For Cc1cnc(-c2nc(O)c3c(n2)CN(C(=O)C2CC2)CC3)cn1 the result was A: 2.067%; C: 18.32%. COc1ccc(C2Nc3cc(Cl)ccc3C3=NCCN32)cc1CO (centres undefined) gave A: -24.04%; B: 83.77%; C: -0.9771%. Result for CN1CC(c2ccccc2)CC12CCN(C(=O)c1ccncc1)CC2 (centres undefined) was A: -5.922%; B: -32.83%; C: 16.88%. Result for CN(c1nc(CSc2nnc(Cn3cncn3)o2)cs1)C1CC1 was A: -14.36%; B: -24.25%; C: 2.459%. For Cc1csc(CNC(=O)CCCc2cccs2)n1 the result was A: -7.487%; B: 8.103%; C: -6.771%. Result for Clc1cc(CN2CCCN3CCCC3C2)c2ncccc2c1 (centres undefined) was A: 10.3%; B: -1.665%; C: 28.14%.

Result for CC(C)c1nnc2n1CCN(C(=O)c1cn(-c3ccccc3)nn1)C2 was A: 2.364%; B: -46.33%; C: -4.158%. Cc1cc(NC(=O)CNc2cccc(OC(F)F)c2C)n(C)n1 read A: 4.063%; B: -49.89%; C: -17.03%. For Cc1ccc(N2CCCC(NCc3ccc(Cl)o3)C2)nn1 (centres undefined) the result was A: 13.86%; C: 6.608%. O=C(O)C(F)(F)F.O=C(c1ccncc1)N1CCC2(CC1)C(=O)Nc1ccccc12 read A: 3.988%; B: -140.4%; C: -82.98%. With c1ccc2c(c1)OCCC2NCc1ccc(N2CCOCC2)cc1 (centres undefined) the screen gave A: -21.19%; B: -44.32%; C: 14.8%.

The first 2 entries again:

Compound,A,B,C
O=C(NC1CCC(C(=O)N2CCSCC2)CC1)N1CCOCC1 (centres undefined),-4.915%,-14.11%,11.96%
N#Cc1ccnc(SCC2CN=C(N3CCOCC3)S2)c1 (centres undefined),-7.081%,-1.105%,19.44%